In article PMC6771040 (Cancers, 2019):
Like-named read-outs stand apart in the source and are kept apart here.

Columns and labels:
[1] = system: PCa lesions; details: cited from earlier work
[2] = general procedure: Fmoc solid-phase peptide synthesis; Rink Amide 4-methylbenzhydrylamine resin (loading 0.53 mmol/g); PyBOP/DIEA; details: whole synthesis

## OC[C@H]1O[C@@H](O)[C@H]([18F])[C@@H](O)[C@@H]1O [FDG, ^18F-flourodeoxyglucose]
[1]; FDG-PET
  sensitivity in detecting PCa lesions: 37%

## Glu-Urea-Glu-Aoc-Lys(NOTA)-(PEG)6-RM26
[2]
  crude mass: 10.6 mg
  isolated mass: 2.6 mg
[2]; UV 220 nm, scale of the general procedure 100 µmolar scale of the general procedure (0.1 mmol)
  final HPLC purity: 95%
[2]; based on the initial loading of the resin, scale of the general procedure 100 µmolar scale of the general procedure (0.1 mmol)
  isolated yield: 10%

## C[N+](C)(C)CCO [choline]
[1]; choline PET
  sensitivity in detecting PCa lesions: 50%
